Measured values reported in US20210363495A1, “CULTURE MEDIA FOR PLURIPOTENT STEM CELLS” (Yeda Research and Development Co. Ltd., priority 2019, published 2021).
For at least one compound, name, drawing or mass did not settle the structure.

Tests used:
[1] = test system: Tet-OFF-METTL3 hESCs (WIBR3, clone W3G4); assay: Pluripotency (OCT4+) maintenance of Tet-OFF-METTL3 hESCs in the presence of DOX; type: cell-based, human; conditions: optimized ENHSM conditions without TNKi, DOX up to 4 passages
From the text: FIGS. 1A-I Defining enhanced human naive conditions compatible with expanding METTL3 depleted PSCs. A. Strategy for generating human ESCs with TET-OFF regulated expression of METTL3 m^6A methyltransferase enzyme. B. Western blot analysis for correctly engineered human ESCs with TET-OFF METTL3 regulation, before and after DOX treatment. C. Representative images for human METTL3 TET-OFF engineered cells in different conditions with or without DOX addition. […] D. Scheme depicting strategy for conducting a screen for identifying a small molecule or cytokine additive to previously described human naïve NHSM conditions that allow maintain pluripotency in TET-OFF METTL3 human stem cells after adding DOX. E. W3G4 cells were maintained in the presence of DOX for up to 4 passages in different conditions and stained for OCT4 to quantify percentage of cells that retained their pluripotency. […] F. OCT4+ pluripotency maintenance in NHSM conditions supplemented with various TNK inhibitors and DOX to repress METTL3 expression. G. Quantification of ΔPE-OCT4-GFP knock in naïve pluripotency reporter, in variety of primed (red) and naïve conditions (blue). Mean fluorescence intensity values (MFI) are indicated. H. Quantification of ΔPE-OCT4-GFP knock in naïve pluripotency reporter in variety of conditions with various concentrations of ACTIVIN A recombinant cytokine. […]

[2] = test system: DNMT1 and UHRF1 protein in human PSCs; assay: Western blot for DNA methylation regulators DNMT1 and UHRF1; type: cell-based; conditions: ENHSM supplemented with BRAF inhibitor

Compound | expanding METTL3 depleted cells when substituted for TNKi [1] | DNMT1 expression [2]
C=C[C@@]1(C)CC(=O)[C@]2(O)[C@@]3(C)[C@@H](O)CCC(C)(C)[C@@H]3[C@H](O)[C@H](OC(C)=O)[C@@]2(C)O1 [Forskolin] | none of them allowed expanding METTL3 depleted cells in vitro | 
CN(C)CCOc1ccc(-c2nc(-c3ccncc3)c(-c3ccc4c(c3)CC/C4=N\O)[nH]2)cc1 [SB590885] | none of them allowed expanding METTL3 depleted cells in vitro | depletes DNMT1 expression to much lower levels
